Results: PubChem BioAssay AID248 (DTP/NCI, 2004)
The list does not hold the whole screen: it gathers tests that were run many times, whatever their T/C, doses with no T/C, and many T/C values between a quarter and a half above the control. Other doses and runs of a compound stand elsewhere. T/C: endpoint of the treated group in % of that of the vehicle group. Some doses have a count of surviving animals in place of a T/C: the source files T/C as zero there, which appears to mark a toxic dose or a test without result, not a measured value. Some doses without a T/C left all or most animals alive at the check, yet need not have been tolerated: the source hardly ever lists a survival T/C far under the control, and the zero likely stands for such cases as well. Counts of survivors are from the toxicity check (mostly the fifth day) where no day follows; animals may have died later. Schedules are NCI's codes, taken here to give the interval after Q, in days (D) or hours (H), and the number of doses after X. Some schedules carry Z or #; the key to these is not given. For survival time, the PubChem record calls one and a half times the control and up active, and a quarter to a half above the control has no call in these data; cut-offs in other NCI protocols can differ. Some entries were tested several times; their values stand side by side, smallest first.

System: L1210 leukemia ip in BDF1 mice, survival T/C
Test: NCI In Vivo Anticancer Drug Screen. Data for tumor model L1210 Leukemia (intraperitoneal) in B6D2F1 (BDF1) mice
Conditions: T/C endpoint: mean survival time, higher T/C = longer survival
[1] = dose: 400.0 mg/kg/injection, schedule: Q04DX003 (ip), vehicle: saline
[2] = dose: 200.0 mg/kg/injection, schedule: Q04DX003 (ip), vehicle: saline with Tween-80
[3] = dose: 400.0 mg/kg/injection, schedule: Q04DX003 (ip), vehicle: saline with Tween-80
[4] = dose: 100.0 mg/kg/injection, schedule: Q04DX003 (ip), vehicle: saline
[5] = dose: 200.0 mg/kg/injection, schedule: Q04DX003 (ip), vehicle: saline
[6] = dose: 400.0 mg/kg/injection, schedule: Q01DX009 (ip), vehicle: Klucel (hydroxypropylcellulose) (HPC)
[7] = dose: 400.0 mg/kg/injection, schedule: Q01DX001 (ip), vehicle: Klucel (hydroxypropylcellulose) (HPC)
[8] = dose: 300.0 mg/kg/injection, schedule: Q01DX001 (ip), vehicle: saline
[9] = dose: 200.0 mg/kg/injection, schedule: Q01DX009 (ip), vehicle: saline with Tween-80
[10] = dose: 60.0 mg/kg/injection, schedule: Q01DX Z (ip), vehicle: methylcellulose (MC)
[11] = dose: 120.0 mg/kg/injection, schedule: Q01DX Z (ip), vehicle: methylcellulose (MC)
[12] = dose: 400.0 mg/kg/injection, schedule: Q04DX003 (ip), vehicle: Klucel (hydroxypropylcellulose) (HPC)
[13] = dose: 400.0 mg/kg/injection, schedule: Q01DX001 (ip), vehicle: saline
[14] = dose: 200.0 mg/kg/injection, schedule: Q01DX001 (ip), vehicle: saline

O=C(O)C(F)(F)C(F)(F)F.[Ag]
survivor count (dose: 150.0 mg/kg/injection, schedule: Q01DX001 (ip), vehicle: acetone): 0 of 6 | survivor count (dose: 300.0 mg/kg/injection, schedule: Q01DX001 (ip), vehicle: acetone): 0 of 6

CCOC(=O)c1ncc2cnccn12
survivor count [1]: 4 of 6

CNC(=S)N/N=C(\C=N\NC(=S)NC)c1ccccc1
survivor count (dose: 1.0 micrograms/kg/injection, schedule: Q01DX009 (ip), vehicle: carboxymethylcellulose (CMC)): 0 of 6 | survivor count (dose: 5.0 micrograms/kg/injection, schedule: Q01DX009 (ip), vehicle: carboxymethylcellulose (CMC)): 0 of 6 | survivor count (dose: 10.0 micrograms/kg/injection, schedule: Q01DX009 (ip), vehicle: carboxymethylcellulose (CMC)): 4 of 6

CC(=O)Oc1cc(C)c(OC(C)=O)c(C)c1C
survivor count [2]: 2 of 6 | survivor count [3]: 0 of 6

N#CC(O)C1(O)CCCCC1 (stereo not given)
survivor count [4]: 0 of 6 | survivor count [5]: 0 of 6 | survivor count [1]: 0 of 6

Nc1nc2ccc([N+](=O)[O-])cc2s1
survivor count (dose: 200.0 mg/kg/injection, schedule: Q01DX009 (ip), vehicle: Klucel (hydroxypropylcellulose) (HPC)): 0 of 6 | survivor count [6]: 0 of 6

O=C1OCCN1S(=O)(=O)c1ccc([N+](=O)[O-])cc1
survivor count [7]: 6 of 6

C[C@]12CCC(=O)C=C1[C@@H](F)C[C@@H]1[C@@H]2[C@@H](O)C[C@@]2(C)[C@H]1CC[C@]2(O)C(=O)CO
survivor count (dose: 600.0 mg/kg/injection, schedule: Q01DX015 (ip), vehicle: saline): 4 of 6

CCOC(=O)NC(/C=C/c1ccccc1)NC(=O)OCC
survivor count (dose: 200.0 mg/kg/injection, schedule: Q01DX001 (ip), vehicle: carboxymethylcellulose (CMC)): 4 of 4

CCCCOP(=O)(OCCCC)OC(C#N)CCC (stereo not given)
survivor count (dose: 400.0 mg/kg/injection, schedule: Q04DX002 (ip), vehicle: Klucel (hydroxypropylcellulose) (HPC)): 3 of 3

CCCCCCCCCCCCC1C(=O)NC(=S)NC1=O
survivor count (dose: 300.0 mg/kg/injection, schedule: Q01DX001 (ip), vehicle: other): 0 of 6

CCOC(=O)C(C#N)N=O (stereo not given)
survivor count [4]: 3 of 6 | survivor count [5]: 1 of 6

CN(CCc1cnc2nc(N)nc(N)c2n1)c1ccc(C(=O)O)cc1
survivor count (dose: 150.0 mg/kg/injection, schedule: Q01DX001 (ip), vehicle: saline): 1 of 6 | survivor count [8]: 1 of 6

COc1cc2c(c(OC)c1OC)-c1ccc(=O)c(OC)cc1[C@@H](NC(=O)CCl)CC2
survivor count [6]: 1 of 6

CC1CCC2C(C1)N(C(C)C)OC2(C)C (stereo not given)
survivor count [9]: 3 of 6 | survivor count [3]: 1 of 6

CNc1ncnc2c1c(Br)cn2C1OC(CO)C(O)C1O (stereo not given)
survivor count (dose: 40.0 mg/kg/injection, schedule: Q01DX001 (ip), vehicle: saline): 2 of 4 | survivor count (dose: 80.0 mg/kg/injection, schedule: Q01DX001 (ip), vehicle: saline): 0 of 4

CC(=O)/C=C/c1ccc([N+](=O)[O-])o1
survivor count [7]: 1 of 6

C=CC(=O)NCNC(=O)C=C
T/C (dose: 200.0 mg/kg/injection, schedule: Q04DX003 (ip), vehicle: carboxymethylcellulose (CMC)): 130 % of control | survivor count (dose: 800.0 mg/kg/injection, schedule: Q01DX001 (ip), vehicle: saline): 0 of 6

O=C(Nc1ccc(C(=O)Nc2cccc(C3=NCCN3)c2)cc1)Nc1ccc(C(=O)Nc2cccc(C3=NCCN3)c2)cc1
T/C (dose: 7.5 mg/kg/injection, schedule: Q01DX Z (ip), vehicle: methylcellulose (MC)): 125 % of control | T/C (dose: 15.0 mg/kg/injection, schedule: Q01DX Z (ip), vehicle: methylcellulose (MC)): 133 and 140 % of control | T/C (dose: 30.0 mg/kg/injection, schedule: Q01DX Z (ip), vehicle: methylcellulose (MC)): 131 % of control | T/C [10]: 143 % of control | survivor count [10]: 5 of 6 | survivor count [11]: 6 of 6

Cc1ccc(N=Nc2c(C)nc(N)nc2C)cc1
survivor count [8]: 3 of 6

NC(N)=NC(N)=Nc1ccc(S(=O)(=O)c2ccc(N=C(N)N=C(N)N)cc2)cc1
survivor count (dose: 400.0 mg/kg/injection, schedule: Q01DX009 (ip), vehicle: saline with Tween-80): 5 of 6

CCOC(=O)CCN(Cc1ccccc1)C(=S)Nc1ccccc1
survivor count (dose: 100.0 mg/kg/injection, schedule: Q01DX Z (ip), vehicle: methylcellulose (MC)): 2 of 6 | survivor count (dose: 200.0 mg/kg/injection, schedule: Q01DX Z (ip), vehicle: methylcellulose (MC)): 4 of 6

Cc1ccc(/C(=N\N=C(N)N)C2CC2)c(C)c1
survivor count [11]: 0 of 6 | survivor count (dose: 120.0 mg/kg/injection, schedule: Q01DX Z (oral), vehicle: methylcellulose (MC)): 5 of 6

Brc1ccc2c(c1)-c1ccccc1C1=NCCN12
survivor count (dose: 20.0 mg/kg/injection, schedule: Q01DX009 (ip), vehicle: Klucel (hydroxypropylcellulose) (HPC)): 3 of 6 | survivor count (dose: 40.0 mg/kg/injection, schedule: Q04DX003 (ip), vehicle: Klucel (hydroxypropylcellulose) (HPC)): 1 of 6 | survivor count (dose: 80.0 mg/kg/injection, schedule: Q04DX003 (ip), vehicle: Klucel (hydroxypropylcellulose) (HPC)): 0 of 6 | survivor count (dose: 100.0 mg/kg/injection, schedule: Q04DX003 (ip), vehicle: Klucel (hydroxypropylcellulose) (HPC)): 0 of 6 | survivor count (dose: 200.0 mg/kg/injection, schedule: Q04DX003 (ip), vehicle: Klucel (hydroxypropylcellulose) (HPC)): 0 of 6 | survivor count [12]: 0 of 6

CC(C)(C)c1cc(C[N+](C)(C)C)cc(C(C)(C)C)n1
survivor count (dose: 200.0 mg/kg/injection, schedule: Q04DX002 (ip), vehicle: saline with Tween-80): 1 of 3

CN1CCCCCC(=N\O)/C(=N/O)CCCCC1
survivor count [13]: 2 of 6

O=[N+]([O-])c1ccc(/C=N/N(Cc2ccccc2)c2ccccc2)s1
survivor count [2]: 6 of 6

O=C(NC(CSCc1ccccc1)C(=O)Oc1ccc([N+](=O)[O-])cc1)OCc1ccccc1 (stereo not given)
survivor count (dose: 100.0 mg/kg/injection, schedule: Q04DX003 (ip), vehicle: gum acacia): 6 of 6 | survivor count (dose: 200.0 mg/kg/injection, schedule: Q04DX003 (ip), vehicle: gum acacia): 6 of 6 | survivor count (dose: 400.0 mg/kg/injection, schedule: Q04DX003 (ip), vehicle: gum acacia): 6 of 6

O=S(=O)(C1CCCCC1)N1N=NC2CCCCC21 (stereo not given)
survivor count [9]: 4 of 6

COc1cc(/C=C(/C)[N+](=O)[O-])ccc1O
survivor count (dose: 100.0 mg/kg/injection, schedule: Q01DX009 (ip), vehicle: carboxymethylcellulose (CMC)): 3 of 6 | survivor count (dose: 200.0 mg/kg/injection, schedule: Q01DX009 (ip), vehicle: carboxymethylcellulose (CMC)): 1 of 6 | survivor count [12]: 1 of 6

O=[As](O)(c1ccccc1)C1CCCCC1O (stereo not given)
survivor count (dose: 100.0 mg/kg/injection, schedule: Q01DX001 (ip), vehicle: saline with Tween-80): 3 of 6 | survivor count (dose: 200.0 mg/kg/injection, schedule: Q01DX001 (ip), vehicle: saline with Tween-80): 0 of 6 | survivor count (dose: 400.0 mg/kg/injection, schedule: Q01DX001 (ip), vehicle: saline with Tween-80): 0 of 6

CCC(=O)N(CC)CC
survivor count [14]: 4 of 4

O=C(/C=C(\Br)c1ccccc1)c1ccccc1
survivor count (dose: 100.0 mg/kg/injection, schedule: Q01DX009 (ip), vehicle: saline with Tween-80): 3 of 3

C/C(Cc1c[nH]c2ccccc12)=N/NC(N)=S
survivor count [14]: 1 of 4 | survivor count [13]: 2 of 4
